Test results from PubChem BioAssay (Tox21).
Where “and” joins values, the source holds several entries; their conditions need not be identical. Equal values may be shown once. The shares of active, inactive and inconclusive entries below differ from those in the screen. For some assays here: Where the call is inconclusive, the potency comes from a doubtful curve fit. Where a structure was tested more than once in an assay, its records may differ in their call. Calls of active or inactive are those of the source. Unless noted, calls come from the whole dose curve.

Chains of the proteins cited; added tags and fusions are not shown.
UniProt P14416, whole entry, looked up: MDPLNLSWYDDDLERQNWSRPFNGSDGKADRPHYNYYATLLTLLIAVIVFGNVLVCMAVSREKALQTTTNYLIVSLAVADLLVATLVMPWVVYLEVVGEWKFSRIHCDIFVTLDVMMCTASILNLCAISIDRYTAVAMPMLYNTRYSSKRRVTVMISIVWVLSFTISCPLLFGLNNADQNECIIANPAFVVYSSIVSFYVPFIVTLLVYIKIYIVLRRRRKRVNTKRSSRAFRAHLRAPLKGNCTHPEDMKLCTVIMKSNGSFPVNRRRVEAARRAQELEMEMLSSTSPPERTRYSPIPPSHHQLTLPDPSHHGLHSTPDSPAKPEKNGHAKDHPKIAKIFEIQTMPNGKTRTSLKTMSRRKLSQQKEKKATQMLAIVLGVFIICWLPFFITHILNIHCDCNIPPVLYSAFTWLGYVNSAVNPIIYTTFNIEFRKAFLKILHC

Assays:
[1] = target: Beta-2 adrenergic receptor (Homo sapiens) (UniProt P07550); experiment: Adrenergic beta2 receptor (ADRB2) small molecule agonists, cell-based qHTS assay (AID 1963593); settings: CHO-ADRB2 cells, cAMP HTRF, 30 min; note: potency is the fitted concentration of half-maximal effect;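 for activation: CHO cells stably overexpressing human ADRB2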
How it was run: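 CHO cells stably over-expressing ADRB2 were plated overnight at 37C, then dosed with compounds plus a stimulation mix containing 100uM IBMX and 25uM Ro-20-1724 for 0.5hr at room temperature. cAMP was measured by HTRF competition, 1hr.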

[2] = target: D(2) dopamine receptor (Homo sapiens) (UniProt P14416); experiment: Dopamine D2 receptor (DRD2) small molecule agonists, cell-based qHTS assay (AID 1963594); settings: HEK293-DRD2 cAMP HTRF, agonist mode, 30 min; activation: at 92.4 µM (top of the series) unless noted; note: nearly all actives have a fitted effect of over 35% in size; note: potency is the fitted concentration of half-maximal effect
How it was run: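 HEK293 cells stably expressing human DRD2, pre-treated with PDE inhibitor Ro20-1724 (0.1 mM final) and compound 10 min at room temperature, then stimulated with NKH477 (200nM […]) for 30 min. cAMP read by HTRF (665/620 nm).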

[3] = target: D(2) dopamine receptor (Homo sapiens) (UniProt P14416); experiment: Dopamine D2 receptor (DRD2) small molecule antagonists, cell-based qHTS assay (AID 1963595; active = well fitted inhibition curve with a large enough effect in the signal ratio in the repeat runs, with a control signal flat; inconclusive = weak or mixed curves, or effect the other way; the % refers to the signal ratio); settings: HEK293-DRD2 cAMP HTRF antagonist mode; activity change, negative = inhibition: at 92.4 µM (top of the series) unless noted
How it was run: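 DRD2-HEK293; 0.1 mM Ro20-1724; cpd 10 min RT; NKH477 200 nM + quinpirole 12 nM, 30 min RT; HTRF cAMP (cAMP-d2/anti-cAMP cryptate), 665/620 nm ratio after 1 h.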

[4] = activation: at 92.4 µM (top of the series) unless noted
% is set by controls: 0 for no effect and ±100 for the full control effect.

Question: For `CCCCN1C=CN(C)C1`, which Potency [1, 4] is on record?
Answer: Its Potency is inconclusive: 1.74 µM [activator, partial curve, poor fit].

Question: With `Cc1nc(C)c(C)nc1C` as the compound, how does the Potency [1, 4] read?
Answer: The Potency was “inactive”.

Question: For `Cc1ccc(CO)cc1`, which Potency [1, 4] is on record?
Answer: Its Potency is “inactive”.

Question: `Cc1cn[nH]c1` was tested. Which Potency [1, 4] did it give?
Answer: Its Potency is “inactive”.

Question: `CN(C)Cc1ccccc1O` was tested. Which Potency [1, 4] did it give?
Answer: Its Potency is “inactive”.

Question: With `CN1[C@@H]2CC[C@H]1CC(OC(=O)C(CO)c1ccccc1)C2` (stereo partly drawn) as the compound, how does the Potency [1, 4] read?
Answer: The Potency was inconclusive: 15.3 µM [inhibitor, partial curve, poor fit] and inconclusive: 19.4 nM [inhibitor, single point].

Question: How did the activation [1, 4] turn out when `Cn1nnc2c(C(N)=O)ncn2c1=O` was run?
Answer: The activation was inconclusive: -38.2% [at 42.5 µM].

Question: For `CCCCCCCCCCCCCCCCI`, which activation [1, 4] is on record?
Answer: The activation was inconclusive: -6.15% [at 19 µM].

Question: How did the Potency [1, 4] turn out when `CCN(CC)C(C)=O` was run?
Answer: The Potency was inconclusive: 0.254 µM [inhibitor, single point].

Question: `CCCCCCCCCCCCCC=O` was tested. Which Potency [1, 4] did it give?
Answer: Its Potency is inconclusive: 0.24 µM [inhibitor, single point].

Question: Which Potency [1, 4] does the source give for `O=C(O)Cc1ccc(CCNS(=O)(=O)c2ccc(Cl)cc2)cc1` here?
Answer: Its Potency is “inactive”.

Question: How did the Potency [1, 4] turn out when `N=c1nc(N2CCCCC2)cc(N)n1O` was run?
Answer: Its Potency is “inactive”.

Question: For `CCCCCCCCCCCCCCCCC(=O)O`, which activation [1, 4] is on record?
Answer: The activation was inconclusive: 13.4% [at 42.5 µM].

Question: How did the Potency [1, 4] turn out when `O=C1NC(=O)c2ccccc21` was run?
Answer: Its Potency is inconclusive: 43.7 µM [inhibitor, partial curve, poor fit].

Question: What about the activation [1, 4] of the same compound?
Answer: The activation was inconclusive: 24.1%.

Question: And the activation ([1]; at 92.4 µM (top of the series))?
Answer: Its activation is inactive: -23.2%.

Question: How did the activation [1, 4] turn out when `[Na+]` was run?
Answer: The activation was inconclusive: 7.6%.

Question: And the activation ([1]; at 92.4 µM (top of the series))?
Answer: Its activation is inactive: 3.61%.

Question: What does the source list for `CN/C(=C\[N+](=O)[O-])NCCSCc1ccc(CN(C)C)o1`?
Answer: activation [1, 4]: inconclusive: 0.0745% [at 42.5 µM]; activation ([1]; at 92.4 µM (top of the series)): inactive: 10.5%; Potency [2]: inactive and active: 17.4 µM

Question: `CN/C(=C\[N+](=O)[O-])NCCSCc1csc(CN(C)C)n1` was tested. Which activation [1, 4] did it give?
Answer: The activation was inconclusive: 1.54%.

Question: What about the activation ([1]; at 42.5 µM (top of the series)) of the same compound?
Answer: Its activation is inactive: 0.425%.

Question: And the Potency [2]?
Answer: Its Potency is inconclusive: 42200 nM.

Question: Which activation [1, 4] does the source give for `CC1(C)OC[C@@H]2O[C@@]3(C(=O)O)OC(C)(C)O[C@H]3[C@@H]2O1` here?
Answer: The activation was inconclusive: 9.8%.

Question: What about the activation ([1]; at 42.5 µM (top of the series)) of the same compound?
Answer: Its activation is inactive: 19.9%.

Question: And the Potency [3]?
Answer: Its Potency is “inactive”.

Question: With `CC(=O)Oc1ccc(C)cc1` as the compound, how does the Potency [1, 4] read?
Answer: The Potency was inconclusive: 0.298 µM [inhibitor, single point].

Question: And the activation [1, 4]?
Answer: The activation was inconclusive: 7.39%.

Question: What does the source list for `O=C(O)CCCC[C@@H]1SC[C@@H]2NC(=O)N[C@@H]21`?
Answer: activation [1, 4]: inconclusive: 24.4% [at 42.5 µM]; activation ([1]; at 92.4 µM (top of the series)): inactive: -15.6%; activation [2]: inconclusive: 1.26% [at 42.5 µM]

Question: For `C/C=C/C(=O)N(CC)c1ccccc1C`, which activation ([1]; at 42.5 µM (top of the series)) is on record?
Answer: The activation was inconclusive: 0.0783%.

Question: And the activation ([1]; at 92.4 µM (top of the series))?
Answer: The activation was inconclusive: 4.82%.

Question: Which results are given for `CNC(=S)N(C)C`?
Answer: Potency [1, 4]: inconclusive: 11.5 µM [inhibitor, single point]; activation [1, 4]: inconclusive: -6.89%

Question: How did the activation ([1]; at 42.5 µM (top of the series)) turn out when `CCc1cc(C(N)=S)ccn1` was run?
Answer: Its activation is inconclusive: 0.544%.

Question: And the activation ([1]; at 92.4 µM (top of the series))?
Answer: Its activation is inactive: 16.8% and inconclusive: -0.329%.

Question: Which results are given for `CC(C)(CO)COC(=O)C(C)(C)CO`?
Answer: Potency [1, 4]: inconclusive: 2.43 µM [inhibitor, single point]; activation [1, 4]: inconclusive: -2.46%

Question: Which results are given for `CCCC(CCC)C(=O)O`?
Answer: activation [1, 4]: inconclusive: 9.11% and inconclusive: 27.2%; activation ([1]; at 42.5 µM (top of the series)): inactive: 11.1%; activation ([1]; at 92.4 µM (top of the series)): inactive: 0.176%

Question: Which Potency [1, 4] does the source give for `C=C(C)[C@H]1CC=C(C)C(=O)C1` here?
Answer: The Potency was inconclusive: 0.0494 µM [inhibitor, single point].

Question: And the activation [1, 4]?
Answer: Its activation is inconclusive: -2.76%.

Question: Which results are given for `Cc1ccc([N+](=O)[O-])cc1S(=O)(=O)O`?
Answer: Potency [1, 4]: inconclusive: 26.8 µM [inhibitor, single point]; activation [1, 4]: inconclusive: 17.9%

Question: `CCCCNC(=O)NS(=O)(=O)c1ccc(N)cc1` was tested. Which activation ([1]; at 42.5 µM (top of the series)) did it give?
Answer: The activation was inconclusive: -20%.

Question: What about the activation ([1]; at 92.4 µM (top of the series)) of the same compound?
Answer: Its activation is inconclusive: -0.24%.

Question: With `COC(=O)c1ccc(O)cc1` as the compound, how does the Potency [1, 4] read?
Answer: The Potency was inconclusive: 0.0078 µM [inhibitor, full curve, poor fit].

Question: And the activation [1, 4]?
Answer: The activation was inconclusive: 1.79% [at 42.5 µM].

Question: And the activation ([1]; at 92.4 µM (top of the series))?
Answer: Its activation is inactive: -18.1%.

Question: And the Potency [3]?
Answer: The Potency was “inactive”.

Question: Which results are given for `CC(=O)Oc1c(C)c(C)c2c(c1C)CC[C@@](C)(CCC[C@H](C)CCC[C@H](C)CCCC(C)C)O2`?
Answer: activation [1, 4]: inconclusive: 8.74% [at 42.5 µM]; activation ([1]; at 92.4 µM (top of the series)): inactive: 15.7%; Potency [2]: inactive

Question: Which activation [1, 4] does the source give for `CCCCCC1=CCCC1=O` here?
Answer: The activation was inconclusive: -6.94%.

Question: And the activation ([1]; at 92.4 µM (top of the series))?
Answer: Its activation is inactive: -26.6%.

Question: `c1ccc(Oc2ccccc2)cc1` was tested. Which activation [1, 4] did it give?
Answer: Its activation is inconclusive: 23.9%.

Question: And the activation ([1]; at 92.4 µM (top of the series))?
Answer: Its activation is inactive: 12.8%.

Question: What about the activation [2] of the same compound?
Answer: The activation was inconclusive: 91.6%.

Question: `O=C1NS(=O)(=O)c2ccccc21` was tested. Which activation ([1]; at 42.5 µM (top of the series)) did it give?
Answer: Its activation is inconclusive: -9.24%.

Question: What about the activation ([1]; at 92.4 µM (top of the series)) of the same compound?
Answer: The activation was inactive: 6.24% [middle of 4 runs].

Question: And the activation [2]?
Answer: Its activation is inconclusive: -11.3%.

Question: `CC(O)C(=O)O` (stereo not drawn) was tested. Which activation ([1]; at 42.5 µM (top of the series)) did it give?
Answer: The activation was inconclusive: 9.41%.

Question: What about the activation ([1]; at 92.4 µM (top of the series)) of the same compound?
Answer: The activation was inconclusive: 25.5% and inconclusive: 50.7%.

Question: What about the activation [2] of the same compound?
Answer: The activation was inconclusive: 3.75% [at 42.5 µM].

Question: And the Potency [3]?
Answer: Its Potency is “inactive”.
